Test results: the supplement of paper PMC10849652
The list shows a part of the results.

Amino acid sequences for entries named in this document (tags omitted). A change or cut given only in a name is not applied to a line headed by its entry.
UniProt Q96RS0: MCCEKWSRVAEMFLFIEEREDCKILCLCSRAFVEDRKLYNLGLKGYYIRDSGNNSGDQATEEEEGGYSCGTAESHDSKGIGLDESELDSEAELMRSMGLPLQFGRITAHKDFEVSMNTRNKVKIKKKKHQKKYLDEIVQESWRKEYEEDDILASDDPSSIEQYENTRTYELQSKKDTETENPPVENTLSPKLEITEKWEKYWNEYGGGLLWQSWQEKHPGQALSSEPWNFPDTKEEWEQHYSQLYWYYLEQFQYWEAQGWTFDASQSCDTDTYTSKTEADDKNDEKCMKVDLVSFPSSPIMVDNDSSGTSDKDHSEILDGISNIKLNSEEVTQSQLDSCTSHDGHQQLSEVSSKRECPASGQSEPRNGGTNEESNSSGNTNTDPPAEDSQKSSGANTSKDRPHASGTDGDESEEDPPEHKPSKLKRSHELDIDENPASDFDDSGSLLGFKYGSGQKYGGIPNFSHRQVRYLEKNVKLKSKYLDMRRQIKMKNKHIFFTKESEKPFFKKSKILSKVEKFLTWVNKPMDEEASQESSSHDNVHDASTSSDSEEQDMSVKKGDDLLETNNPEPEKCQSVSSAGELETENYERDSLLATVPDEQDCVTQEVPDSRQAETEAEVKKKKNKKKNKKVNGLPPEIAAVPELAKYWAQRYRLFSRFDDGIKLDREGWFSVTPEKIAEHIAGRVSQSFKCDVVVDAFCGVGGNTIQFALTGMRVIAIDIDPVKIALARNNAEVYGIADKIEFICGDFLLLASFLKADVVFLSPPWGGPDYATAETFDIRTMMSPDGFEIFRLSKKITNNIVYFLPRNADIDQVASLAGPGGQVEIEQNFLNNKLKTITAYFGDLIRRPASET
UniProt Q12800: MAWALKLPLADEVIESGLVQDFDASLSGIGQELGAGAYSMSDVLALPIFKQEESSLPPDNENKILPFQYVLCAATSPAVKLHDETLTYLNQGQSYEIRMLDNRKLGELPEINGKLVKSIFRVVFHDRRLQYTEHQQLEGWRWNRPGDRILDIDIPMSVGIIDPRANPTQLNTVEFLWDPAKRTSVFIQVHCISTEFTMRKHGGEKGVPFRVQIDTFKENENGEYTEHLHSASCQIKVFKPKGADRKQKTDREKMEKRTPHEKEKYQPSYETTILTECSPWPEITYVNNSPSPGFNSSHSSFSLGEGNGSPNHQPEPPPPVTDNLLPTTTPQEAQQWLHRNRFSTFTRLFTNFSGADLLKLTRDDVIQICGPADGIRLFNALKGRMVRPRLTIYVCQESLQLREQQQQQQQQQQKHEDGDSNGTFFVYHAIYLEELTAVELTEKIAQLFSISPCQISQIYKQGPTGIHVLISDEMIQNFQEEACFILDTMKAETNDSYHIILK
UniProt Q8NHU6: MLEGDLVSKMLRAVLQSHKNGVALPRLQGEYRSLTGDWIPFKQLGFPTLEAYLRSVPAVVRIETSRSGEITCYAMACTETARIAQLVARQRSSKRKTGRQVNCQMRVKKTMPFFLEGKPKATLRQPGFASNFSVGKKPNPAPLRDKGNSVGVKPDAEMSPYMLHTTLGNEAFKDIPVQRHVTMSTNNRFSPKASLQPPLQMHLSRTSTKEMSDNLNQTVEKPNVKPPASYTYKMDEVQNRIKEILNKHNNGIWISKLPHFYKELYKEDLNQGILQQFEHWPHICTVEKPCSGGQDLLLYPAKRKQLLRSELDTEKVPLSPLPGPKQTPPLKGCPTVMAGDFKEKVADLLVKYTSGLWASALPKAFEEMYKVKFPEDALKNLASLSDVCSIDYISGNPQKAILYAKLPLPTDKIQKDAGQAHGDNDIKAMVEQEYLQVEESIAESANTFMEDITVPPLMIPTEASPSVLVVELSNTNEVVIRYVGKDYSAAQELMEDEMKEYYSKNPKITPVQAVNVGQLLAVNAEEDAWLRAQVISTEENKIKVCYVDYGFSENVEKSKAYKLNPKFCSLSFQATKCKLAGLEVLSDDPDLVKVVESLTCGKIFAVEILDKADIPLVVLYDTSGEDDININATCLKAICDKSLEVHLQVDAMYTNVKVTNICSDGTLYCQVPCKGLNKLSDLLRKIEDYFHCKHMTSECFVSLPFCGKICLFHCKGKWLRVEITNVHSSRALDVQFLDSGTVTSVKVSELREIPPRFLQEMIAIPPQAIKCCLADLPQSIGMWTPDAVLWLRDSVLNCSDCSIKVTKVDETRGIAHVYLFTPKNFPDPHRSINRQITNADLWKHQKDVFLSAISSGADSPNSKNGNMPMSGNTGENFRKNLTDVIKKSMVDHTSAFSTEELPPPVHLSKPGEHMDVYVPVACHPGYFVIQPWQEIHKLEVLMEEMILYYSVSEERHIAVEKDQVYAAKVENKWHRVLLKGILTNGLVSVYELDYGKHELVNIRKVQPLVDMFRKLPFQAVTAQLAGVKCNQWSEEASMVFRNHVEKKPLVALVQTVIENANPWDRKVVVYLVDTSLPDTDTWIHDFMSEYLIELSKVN
UniProt P10646, whole entry, looked up: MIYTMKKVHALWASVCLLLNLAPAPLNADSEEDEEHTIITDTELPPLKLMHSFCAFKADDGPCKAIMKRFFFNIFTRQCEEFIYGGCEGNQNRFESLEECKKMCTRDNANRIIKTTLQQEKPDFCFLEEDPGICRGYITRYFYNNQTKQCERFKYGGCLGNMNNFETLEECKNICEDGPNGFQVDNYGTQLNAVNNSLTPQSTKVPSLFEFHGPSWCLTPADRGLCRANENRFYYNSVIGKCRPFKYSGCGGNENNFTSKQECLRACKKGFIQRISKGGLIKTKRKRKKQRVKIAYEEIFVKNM
UniProt O00142: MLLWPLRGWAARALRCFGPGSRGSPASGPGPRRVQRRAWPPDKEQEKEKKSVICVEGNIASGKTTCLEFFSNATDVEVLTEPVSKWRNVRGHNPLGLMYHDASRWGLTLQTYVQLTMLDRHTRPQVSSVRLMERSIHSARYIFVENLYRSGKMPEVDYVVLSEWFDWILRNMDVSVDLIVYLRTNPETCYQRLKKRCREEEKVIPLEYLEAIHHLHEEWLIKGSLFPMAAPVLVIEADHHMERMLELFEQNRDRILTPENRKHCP
UniProt Q8IWB9: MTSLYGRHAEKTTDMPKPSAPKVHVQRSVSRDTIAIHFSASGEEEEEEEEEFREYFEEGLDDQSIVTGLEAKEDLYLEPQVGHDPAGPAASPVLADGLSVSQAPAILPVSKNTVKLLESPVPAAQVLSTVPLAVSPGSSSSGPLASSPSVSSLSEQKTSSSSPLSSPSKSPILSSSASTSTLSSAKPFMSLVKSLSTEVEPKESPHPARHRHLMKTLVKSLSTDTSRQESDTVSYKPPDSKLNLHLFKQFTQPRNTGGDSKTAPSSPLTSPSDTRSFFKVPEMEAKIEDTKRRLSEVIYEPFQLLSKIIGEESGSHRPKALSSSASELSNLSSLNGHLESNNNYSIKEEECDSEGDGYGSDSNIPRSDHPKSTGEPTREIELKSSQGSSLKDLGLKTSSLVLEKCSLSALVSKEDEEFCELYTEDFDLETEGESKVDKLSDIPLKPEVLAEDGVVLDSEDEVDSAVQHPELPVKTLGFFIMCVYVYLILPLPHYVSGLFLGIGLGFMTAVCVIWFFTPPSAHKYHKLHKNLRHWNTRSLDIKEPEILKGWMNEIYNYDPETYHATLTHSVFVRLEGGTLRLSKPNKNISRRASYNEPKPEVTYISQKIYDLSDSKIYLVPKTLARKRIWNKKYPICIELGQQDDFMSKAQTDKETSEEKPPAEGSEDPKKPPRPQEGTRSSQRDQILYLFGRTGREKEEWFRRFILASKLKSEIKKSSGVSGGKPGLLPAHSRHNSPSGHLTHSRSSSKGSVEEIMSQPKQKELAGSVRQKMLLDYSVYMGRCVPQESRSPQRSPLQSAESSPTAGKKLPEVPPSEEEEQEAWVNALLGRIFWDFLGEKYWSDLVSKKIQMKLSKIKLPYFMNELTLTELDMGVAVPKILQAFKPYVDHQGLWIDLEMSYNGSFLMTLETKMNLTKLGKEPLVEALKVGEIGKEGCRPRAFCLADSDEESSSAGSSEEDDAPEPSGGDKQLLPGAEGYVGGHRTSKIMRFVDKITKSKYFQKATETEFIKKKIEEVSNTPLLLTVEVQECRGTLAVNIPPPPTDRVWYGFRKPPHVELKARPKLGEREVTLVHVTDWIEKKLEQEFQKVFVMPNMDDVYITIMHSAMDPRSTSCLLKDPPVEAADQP
UniProt Q13488, whole entry, looked up: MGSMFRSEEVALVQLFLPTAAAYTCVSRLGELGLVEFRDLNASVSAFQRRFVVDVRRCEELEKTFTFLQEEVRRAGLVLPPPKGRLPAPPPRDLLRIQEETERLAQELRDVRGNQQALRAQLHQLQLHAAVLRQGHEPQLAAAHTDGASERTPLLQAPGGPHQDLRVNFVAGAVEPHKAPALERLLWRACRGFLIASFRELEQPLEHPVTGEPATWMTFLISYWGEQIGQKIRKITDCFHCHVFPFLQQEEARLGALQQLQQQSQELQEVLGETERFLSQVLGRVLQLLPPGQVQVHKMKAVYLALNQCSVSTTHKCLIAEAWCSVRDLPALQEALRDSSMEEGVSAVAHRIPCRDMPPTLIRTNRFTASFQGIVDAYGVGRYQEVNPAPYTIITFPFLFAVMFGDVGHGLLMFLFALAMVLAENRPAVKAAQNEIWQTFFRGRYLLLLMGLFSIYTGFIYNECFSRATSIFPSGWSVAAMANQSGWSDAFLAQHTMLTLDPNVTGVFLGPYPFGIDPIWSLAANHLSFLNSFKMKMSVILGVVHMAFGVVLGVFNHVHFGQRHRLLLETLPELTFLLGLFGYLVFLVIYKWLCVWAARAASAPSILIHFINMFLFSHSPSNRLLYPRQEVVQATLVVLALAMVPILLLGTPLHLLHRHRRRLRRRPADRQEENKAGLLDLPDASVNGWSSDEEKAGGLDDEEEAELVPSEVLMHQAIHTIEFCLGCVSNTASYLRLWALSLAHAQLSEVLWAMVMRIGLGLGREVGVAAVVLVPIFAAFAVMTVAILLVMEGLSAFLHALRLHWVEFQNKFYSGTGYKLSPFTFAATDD
UniProt Q9P016: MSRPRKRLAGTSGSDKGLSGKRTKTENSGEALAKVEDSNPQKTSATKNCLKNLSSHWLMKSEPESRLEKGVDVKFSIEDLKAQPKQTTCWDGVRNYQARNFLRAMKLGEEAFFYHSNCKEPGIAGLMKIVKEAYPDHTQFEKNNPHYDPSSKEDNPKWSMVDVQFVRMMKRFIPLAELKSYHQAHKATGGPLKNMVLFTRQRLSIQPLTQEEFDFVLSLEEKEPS
UniProt Q9ULP9: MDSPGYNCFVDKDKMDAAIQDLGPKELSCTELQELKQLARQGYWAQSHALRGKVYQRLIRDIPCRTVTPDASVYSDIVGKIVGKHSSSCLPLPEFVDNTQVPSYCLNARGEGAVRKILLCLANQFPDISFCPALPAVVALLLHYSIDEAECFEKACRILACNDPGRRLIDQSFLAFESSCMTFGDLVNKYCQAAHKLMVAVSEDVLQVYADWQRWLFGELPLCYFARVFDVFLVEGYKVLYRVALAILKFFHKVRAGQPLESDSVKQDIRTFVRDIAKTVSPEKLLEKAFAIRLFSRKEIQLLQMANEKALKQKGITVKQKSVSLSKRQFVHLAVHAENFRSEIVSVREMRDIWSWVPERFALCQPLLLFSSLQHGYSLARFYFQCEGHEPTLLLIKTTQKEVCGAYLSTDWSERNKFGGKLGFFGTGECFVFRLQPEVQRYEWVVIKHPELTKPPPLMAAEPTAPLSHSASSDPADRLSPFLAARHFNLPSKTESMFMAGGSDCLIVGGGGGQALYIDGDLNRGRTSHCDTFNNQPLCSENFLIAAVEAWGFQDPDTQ
UniProt Q15170: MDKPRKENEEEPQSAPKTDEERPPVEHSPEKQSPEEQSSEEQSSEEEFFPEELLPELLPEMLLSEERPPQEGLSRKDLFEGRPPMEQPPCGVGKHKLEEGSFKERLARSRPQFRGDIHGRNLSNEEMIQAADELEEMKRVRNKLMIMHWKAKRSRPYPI
UniProt Q9BQ70: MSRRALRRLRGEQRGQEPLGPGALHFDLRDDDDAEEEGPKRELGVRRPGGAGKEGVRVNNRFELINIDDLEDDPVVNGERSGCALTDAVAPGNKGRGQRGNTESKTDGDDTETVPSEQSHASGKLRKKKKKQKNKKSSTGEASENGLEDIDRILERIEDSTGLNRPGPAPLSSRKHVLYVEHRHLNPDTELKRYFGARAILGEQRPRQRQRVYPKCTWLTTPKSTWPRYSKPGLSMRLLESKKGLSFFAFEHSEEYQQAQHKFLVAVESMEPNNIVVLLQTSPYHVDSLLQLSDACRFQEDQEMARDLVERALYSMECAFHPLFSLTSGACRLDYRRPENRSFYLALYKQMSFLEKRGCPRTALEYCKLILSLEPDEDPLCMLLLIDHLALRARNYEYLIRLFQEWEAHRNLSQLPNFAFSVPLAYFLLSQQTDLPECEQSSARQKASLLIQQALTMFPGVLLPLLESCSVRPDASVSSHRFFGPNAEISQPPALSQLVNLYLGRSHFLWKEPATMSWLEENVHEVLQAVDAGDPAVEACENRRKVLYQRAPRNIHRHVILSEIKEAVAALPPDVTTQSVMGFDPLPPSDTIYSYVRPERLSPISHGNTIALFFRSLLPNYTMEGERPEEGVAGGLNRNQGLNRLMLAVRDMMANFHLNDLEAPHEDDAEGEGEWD

Compound: C[C@H](Nc1ncnc2nc[nH]c12)c1cc2cccc(Cl)c2c(=O)n1-c1ccccc1 [duvelisib]
Test: log2 fold change, soluble protein after heating vs DMSO (PISA); higher = thermal stabilisation; K562 cells, 10 uM, 30 min; active = over 0.2 and 3.5 SD of the protein, either way, in both replicates (recomputed)
In short: (§1)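 K562 cells (2×10^6 cells/mL) were treated with 10 μM compound for 30 min, and aliquots were heated for 3 min over 48°C-58°C. Pooled aliquots were extracted in PBS with 0.5% NP-40 at 4°C, and the supernatant after 21,000xg for 90 min was measured by TMTpro 16plex LC-MS/MS with channel sums equalised. Reported thermal stability, relative to control samples and from duplicates, is a log2 fold change.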

log2 fold change, inactive:
TGS1 (UniProt Q96RS0) -0.048
TFCP2 (UniProt Q12800) -0.126
TDRD7 (UniProt Q8NHU6) 0.23
TFPI (UniProt P10646) -0.179
TBC1D2B (UniProt Q9UPU7) 0.007
TK2 isoform 6 (UniProt O00142) 0.132
TEX2 isoform 2 (UniProt Q8IWB9) -0.014
TCIRG1 (UniProt Q13488) -0.208
TKT, A0A0B4J1R6 0.015

Compound: Cc1cc(Nc2cc(CN3CCOCC3)c3nc(C)c(Cc4ccc(Cl)cc4F)n3n2)n[nH]1 [gandotinib]
Test: as above
In short: as §1

log2 fold change, active:
THADA (UniProt Q6YHU6) -0.239

log2 fold change, inactive:
TERF2IP (UniProt Q9NYB0) 0.028
TBC1D23 (UniProt Q9NUY8) -0.205
TFAM (UniProt Q00059) 0.176
TENT5C (UniProt Q5VWP2) 0.142
TIPRL (UniProt O75663) -0.159
TFCP2 (UniProt Q12800) 0.039
TBC1D5 isoform 2 (UniProt Q92609) -0.255
TDRD7 (UniProt Q8NHU6) -0.054
TBC1D20 isoform 3 (UniProt Q96BZ9) -0.078
TGFBI (UniProt Q15582) -0.451
TJP1 (UniProt Q07157) -0.124
TFPI (UniProt P10646) -0.028
TFDP1 (UniProt Q14186) -0.035
TBRG4 (UniProt Q969Z0) -0.364
TJP2 isoform 7 (UniProt Q9UDY2) -0.089
TIFA (UniProt Q96CG3) -0.016
THYN1 (UniProt Q9P016) 0.021
TBCD (UniProt Q9BTW9) -0.104
TBK1 (UniProt Q9UHD2) 0.237
TBC1D24 (UniProt Q9ULP9) -0.361
TK2 isoform 6 (UniProt O00142) 0.006
TEX2 isoform 2 (UniProt Q8IWB9) -0.059
TCEAL1 isoform 2 (UniProt Q15170) 0.045
THRAP3 (UniProt Q9Y2W1) -0.003
TIMM44 (UniProt O43615) -0.258
TCIRG1 (UniProt Q13488) -0.032
TIMM29 (UniProt Q9BSF4) -0.014
TK1 (UniProt P04183) -0.055
TIMM21 (UniProt Q9BVV7) 0.04
TEX30 (UniProt Q5JUR7) -0.292
TCF25 (UniProt Q9BQ70) -0.159

Compound: Cc1cc(Nc2cc(N3CCN(C)CC3)nc(Sc3ccc(NC(=O)C4CC4)cc3)n2)n[nH]1 [tozasertib]
Test: as above
In short: as §1

log2 fold change, inactive:
TGS1 (UniProt Q96RS0) -0.02
TFPI (UniProt P10646) 0.054
TFDP1 (UniProt Q14186) -0.049
TK2 isoform 6 (UniProt O00142) -0.087
TEX2 isoform 2 (UniProt Q8IWB9) 0.067
TFE3 (UniProt P19532) -0.185
TCEAL1 isoform 2 (UniProt Q15170) -0.028
TCIRG1 (UniProt Q13488) 0.171
TKT, A0A0B4J1R6 -0.12
TCF25 (UniProt Q9BQ70) 0.201

Compound: Cc1cc(SCc2sc(-c3ccc(C(F)(F)F)cc3)nc2C)ccc1OCC(=O)O
Test: as above
In short: as §1

log2 fold change, inactive:
TERF2IP (UniProt Q9NYB0) 0.005
TBC1D23 (UniProt Q9NUY8) 0.028
TFAM (UniProt Q00059) -0.034
TGS1 (UniProt Q96RS0) 0.053
TENT5C (UniProt Q5VWP2) 0.174
TIPRL (UniProt O75663) 0.065
TFCP2 (UniProt Q12800) 0.082
TBC1D5 isoform 2 (UniProt Q92609) 0.142
TDRD7 (UniProt Q8NHU6) -0.096
TGFBI (UniProt Q15582) 0.043
TJP1 (UniProt Q07157) 0.061
TFPI (UniProt P10646) 0.037
TBP (UniProt P20226) -0.098
TBRG4 (UniProt Q969Z0) 0.174
TJP2 isoform 7 (UniProt Q9UDY2) 0.071
THYN1 (UniProt Q9P016) 0.087
TBC1D2B (UniProt Q9UPU7) 0.162
TBCD (UniProt Q9BTW9) 0.009
TBK1 (UniProt Q9UHD2) 0.175
TBC1D24 (UniProt Q9ULP9) 0.073
TK2 isoform 6 (UniProt O00142) -0.204
TEX2 isoform 2 (UniProt Q8IWB9) 0.076
THRAP3 (UniProt Q9Y2W1) -0.071
THADA (UniProt Q6YHU6) 0.083
TIMM44 (UniProt O43615) 0.091
TCIRG1 (UniProt Q13488) 0.178
TIMM29 (UniProt Q9BSF4) 0.02
TK1 (UniProt P04183) -0.03
TIMM21 (UniProt Q9BVV7) 0.033
TEX30 (UniProt Q5JUR7) 0.067
TKT, A0A0B4J1R6 -0.018
THAP9 (UniProt Q9H5L6) -0.245
